Experimental data published in article PMC3698177.
These are yes or no findings as the source states them, for the method shown. Binding seen in cells or lysates may run through a third protein. Some binding calls cover weakened binding; strength is not graded here.

Chains of the proteins cited; added tags and fusions are not shown.
UniProt O95996: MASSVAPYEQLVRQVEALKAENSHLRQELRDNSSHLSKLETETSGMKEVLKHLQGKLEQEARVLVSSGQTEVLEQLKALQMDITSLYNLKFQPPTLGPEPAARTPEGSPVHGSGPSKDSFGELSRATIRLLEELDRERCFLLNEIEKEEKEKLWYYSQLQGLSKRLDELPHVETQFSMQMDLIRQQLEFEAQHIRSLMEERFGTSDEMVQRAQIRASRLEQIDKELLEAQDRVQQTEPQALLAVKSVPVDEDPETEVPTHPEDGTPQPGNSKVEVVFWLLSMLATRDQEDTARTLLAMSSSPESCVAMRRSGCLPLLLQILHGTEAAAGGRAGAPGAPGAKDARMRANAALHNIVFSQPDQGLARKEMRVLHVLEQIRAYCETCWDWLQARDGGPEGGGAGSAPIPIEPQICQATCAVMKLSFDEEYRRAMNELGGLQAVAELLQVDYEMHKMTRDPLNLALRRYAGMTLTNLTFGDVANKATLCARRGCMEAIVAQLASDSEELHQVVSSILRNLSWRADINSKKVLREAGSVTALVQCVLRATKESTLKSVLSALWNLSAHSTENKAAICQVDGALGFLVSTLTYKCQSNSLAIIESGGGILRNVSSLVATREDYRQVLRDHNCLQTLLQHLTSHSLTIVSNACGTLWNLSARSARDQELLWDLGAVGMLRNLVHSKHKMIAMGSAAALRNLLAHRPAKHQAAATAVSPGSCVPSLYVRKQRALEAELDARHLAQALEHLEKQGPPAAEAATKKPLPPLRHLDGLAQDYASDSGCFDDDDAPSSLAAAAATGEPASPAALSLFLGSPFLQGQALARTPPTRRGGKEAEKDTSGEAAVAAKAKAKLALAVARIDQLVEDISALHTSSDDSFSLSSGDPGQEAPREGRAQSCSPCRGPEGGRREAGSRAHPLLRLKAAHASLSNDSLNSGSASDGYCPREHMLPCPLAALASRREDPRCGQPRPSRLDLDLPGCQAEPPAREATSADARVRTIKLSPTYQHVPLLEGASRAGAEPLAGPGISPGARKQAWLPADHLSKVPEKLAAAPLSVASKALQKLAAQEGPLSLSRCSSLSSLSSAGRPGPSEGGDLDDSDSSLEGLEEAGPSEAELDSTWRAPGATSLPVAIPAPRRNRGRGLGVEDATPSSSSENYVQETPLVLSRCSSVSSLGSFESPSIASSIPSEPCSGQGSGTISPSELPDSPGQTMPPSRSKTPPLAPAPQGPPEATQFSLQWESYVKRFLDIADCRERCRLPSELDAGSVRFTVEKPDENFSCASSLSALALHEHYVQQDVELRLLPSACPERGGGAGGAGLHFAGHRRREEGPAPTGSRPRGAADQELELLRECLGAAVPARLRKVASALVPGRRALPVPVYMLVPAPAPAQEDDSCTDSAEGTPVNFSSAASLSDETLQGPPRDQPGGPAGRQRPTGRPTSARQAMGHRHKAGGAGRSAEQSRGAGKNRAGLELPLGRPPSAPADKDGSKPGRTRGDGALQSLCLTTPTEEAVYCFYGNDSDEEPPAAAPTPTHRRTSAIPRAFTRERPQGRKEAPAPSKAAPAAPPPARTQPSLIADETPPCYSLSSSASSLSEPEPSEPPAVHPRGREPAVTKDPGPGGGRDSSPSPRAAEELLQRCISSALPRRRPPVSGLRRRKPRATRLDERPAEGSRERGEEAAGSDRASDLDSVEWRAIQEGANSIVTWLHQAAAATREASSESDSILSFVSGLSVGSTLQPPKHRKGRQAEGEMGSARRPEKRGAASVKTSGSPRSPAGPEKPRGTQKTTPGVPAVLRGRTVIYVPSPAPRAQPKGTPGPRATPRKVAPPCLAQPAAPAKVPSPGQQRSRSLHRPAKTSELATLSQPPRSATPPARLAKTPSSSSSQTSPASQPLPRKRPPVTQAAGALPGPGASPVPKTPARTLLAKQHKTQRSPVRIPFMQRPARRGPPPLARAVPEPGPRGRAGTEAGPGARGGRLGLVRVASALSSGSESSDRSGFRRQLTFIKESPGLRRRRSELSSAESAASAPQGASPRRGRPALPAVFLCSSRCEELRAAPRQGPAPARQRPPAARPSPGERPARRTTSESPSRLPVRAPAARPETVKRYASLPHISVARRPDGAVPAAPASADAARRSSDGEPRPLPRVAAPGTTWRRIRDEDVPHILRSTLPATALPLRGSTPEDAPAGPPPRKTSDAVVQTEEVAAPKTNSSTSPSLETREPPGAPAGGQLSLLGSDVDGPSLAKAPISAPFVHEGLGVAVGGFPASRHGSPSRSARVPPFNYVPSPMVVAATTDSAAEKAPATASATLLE
UniProt P35222: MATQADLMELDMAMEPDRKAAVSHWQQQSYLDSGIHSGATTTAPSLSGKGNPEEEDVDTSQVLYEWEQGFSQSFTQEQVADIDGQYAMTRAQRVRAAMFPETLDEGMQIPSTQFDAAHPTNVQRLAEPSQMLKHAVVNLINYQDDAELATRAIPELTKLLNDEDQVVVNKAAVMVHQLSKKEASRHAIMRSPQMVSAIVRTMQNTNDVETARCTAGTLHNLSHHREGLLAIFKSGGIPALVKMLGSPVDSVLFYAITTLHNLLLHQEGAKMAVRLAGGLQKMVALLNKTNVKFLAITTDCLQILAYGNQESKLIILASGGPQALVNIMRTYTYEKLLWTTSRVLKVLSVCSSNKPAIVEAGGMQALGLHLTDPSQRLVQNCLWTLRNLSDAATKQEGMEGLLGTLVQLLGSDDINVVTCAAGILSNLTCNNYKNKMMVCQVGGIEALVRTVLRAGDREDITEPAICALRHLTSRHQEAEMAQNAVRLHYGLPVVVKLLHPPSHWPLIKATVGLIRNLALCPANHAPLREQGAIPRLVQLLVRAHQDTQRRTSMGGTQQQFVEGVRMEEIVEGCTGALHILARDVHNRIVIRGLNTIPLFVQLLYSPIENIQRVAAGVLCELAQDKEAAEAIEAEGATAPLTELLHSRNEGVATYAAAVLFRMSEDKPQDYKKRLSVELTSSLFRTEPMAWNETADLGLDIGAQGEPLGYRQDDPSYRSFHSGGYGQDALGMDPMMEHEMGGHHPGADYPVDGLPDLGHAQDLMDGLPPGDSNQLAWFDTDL

Target: YFP-APCL (human) (UniProt O95996)
Experiment: co-IP; Triton-X100 extract of 293T cells transfected with the YFP fusion, mixed with an SW480 Triton-X100 extract as a source of β-catenin; immunoprecipitation with anti-GFP, western blot; washes in 50 mM TrisHCl pH8, 150 mM NaCl, 5 mM EDTA, 1% Triton-X100

binding: binds
Substance: β-catenin (from UniProt P35222 1-781)
